PubChem BioAssay AID1259424 | University of Nebraska Medical Center – 2018

Aim: 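Find knockdowns that reproduce the expression shifts seen after KSR1 loss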 (primary screen)
System: human HCT116 colon cancer cells
Reagents: siRNA pool against human genes, 50 nM
Measurement: 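Six signature mRNAs by branched-DNA multiplex assay, scaled to two housekeeping genes and non-targeting median, log2; matched to mean KSR1 knockdown profile by Pearson correlation and euclidean distance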
Reading the numbers: mean correlation with KSR1 profile and KSR1 correlation: higher = expression change more like KSR1 knockdown; mean distance from KSR1 profile: higher = expression change less like KSR1 knockdown
In all, the deposit lists about 14,000 reagents; shown is an unselected part. 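Higher correlation or smaller distance means closer resemblance to KSR1 loss; control wells, including KSR1 knockdowns, recur on many plates.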 Some reagents were tested in more than one well and are listed for each. Reagent sequences are not shown. The record does not give: the time to read-out.

| Target gene | mean correlation with KSR1 profile | mean distance from KSR1 profile | KSR1 correlation, replicate 1 | KSR1 correlation, replicate 2 | KSR1 correlation, replicate 3 |
| --- | --- | --- | --- | --- | --- |
| VNN3P (vanin 3, pseudogene) | -0.789 | 2.74 | -0.672 | -0.884 | -0.684 |
| UBTF (upstream binding transcription factor) | 0.763 | 1.26 | 0.204 | 0.399 | 0.96 |
| ZBTB24 (zinc finger and BTB domain containing 24) | -0.499 | 2.11 | -0.367 | -0.71 | -0.26 |
| CDH3 (cadherin 3) | -0.129 | 1.83 | -0.118 | -0.204 | -0.265 |
| SHANK3 (SH3 and multiple ankyrin repeat domains 3) | 0.138 | 1.76 | 0.106 | 0.094 | 0.179 |
| FNDC4 (fibronectin type III domain containing 4) | -0.473 | 2.15 | -0.485 | -0.615 | -0.431 |
| PADI4 (peptidyl arginine deiminase 4) | -0.662 | 2.53 | -0.405 | -0.896 | -0.779 |
| TCF7 (transcription factor 7) | 0.0164 | 1.48 | 0.345 | 0.235 | -0.229 |
| TFAP4 (transcription factor AP-4) | -0.305 | 1.62 | 0.0641 | -0.26 | -0.249 |
| ERGIC3 (ERGIC and golgi 3) | 0.208 | 2.55 | 0.485 | 0.212 | 0.148 |
| BTC (betacellulin) | 0.0314 | 2.37 | -0.253 | 0.413 | 0.0414 |
| ETV5 (ETS variant transcription factor 5) | -0.127 | 1.61 | -0.217 | -0.178 | -0.265 |
| AOAH (acyloxyacyl hydrolase) | -0.578 | 3.22 | -0.526 | -0.67 | -0.346 |
| RLF (RLF zinc finger) | 0.169 | 2.63 | 0.33 | 0.408 | 0.1 |
| ZBTB26 (zinc finger and BTB domain containing 26) | -0.141 | 2.16 | -0.402 | 0.0391 | -0.233 |
| SMG1 | 0.161 | 1.67 | 0.225 | 0.24 | 0.00113 |
| ZNF510 (zinc finger protein 510) | -0.191 | 2.36 | 0.000333 | -0.269 | -0.172 |
| TCTN1 (tectonic family member 1) | 0.688 | 1.24 | 0.718 | 0.564 | 0.612 |
| POLA1 (DNA polymerase alpha 1, catalytic subunit) | -0.454 | 2.28 | -0.423 | -0.16 | -0.932 |
| INCENP (inner centromere protein) | 0.0566 | 2.97 | 0.105 | 0.016 | -0.108 |
| GRHL2 (grainyhead like transcription factor 2) | -0.173 | 3.95 | -0.108 | -0.162 | -0.227 |
| TMEM191A (transmembrane protein 191A (pseudogene)) | 0.416 | 1.39 | 0.281 | 0.137 | 0.523 |
| AGFG1 (ArfGAP with FG repeats 1) | -0.393 | 6.58 | -0.547 | -0.383 | 0.0325 |
| SIX4 (SIX homeobox 4) | -0.453 | 3.77 | -0.329 | -0.163 | -0.431 |
| MMP11 (matrix metallopeptidase 11) | 0.111 | 3.24 | 0.113 | 0.0714 | 0.0724 |
| BTN1A1 (butyrophilin subfamily 1 member A1) | 0.292 | 1.4 | 0.162 | 0.237 | 0.603 |
| SLC6A6 | -0.287 | 2.1 | -0.122 | -0.495 | -0.163 |
| FAM220A (family with sequence similarity 220 member A) | 0.45 | 1.73 | 0.461 | 0.193 | 0.421 |
| EGR1 (early growth response 1) | 0.175 | 1.4 | 0.0134 | 0.499 | -0.159 |
| CTIF (cap binding complex dependent translation initiation factor) | -0.392 | 5.1 | -0.434 | -0.372 | -0.354 |
| ACTRT1 (actin related protein T1) | -0.162 | 2.57 | -0.217 | 0.0656 | -0.325 |
| CDR1 (cerebellar degeneration related 1) | -0.579 | 1.95 | -0.472 | -0.589 | -0.503 |
| TTC29 (tetratricopeptide repeat domain 29) | 0.16 | 1.51 | 0.053 | 0.00613 | 0.163 |
| OLAH (oleoyl-ACP hydrolase) | 0.503 | 3.38 | 0.259 | 0.39 | 0.631 |
| TNFAIP3 (TNF alpha induced protein 3) | -0.32 | 2.12 | 0.0191 | -0.143 | -0.646 |
| LEPROTL1 (leptin receptor overlapping transcript like 1) | -0.238 | 2.81 | -0.318 | -0.364 | -0.407 |
| AKAP19 (A-kinase anchoring protein 19) | 0.706 | 3.97 | 0.636 | 0.717 | 0.417 |
| RFWD3 (ring finger and WD repeat domain 3) | -0.442 | 2.56 | -0.404 | -0.202 | -0.282 |
| PHF24 (PHD finger protein 24) | 0.343 | 1.75 | 0.308 | 0.417 | 0.27 |
| PPA2 (inorganic pyrophosphatase 2) | -0.335 | 1.65 | -0.294 | -0.416 | -0.208 |
| FETUB (fetuin B) | 0.0234 | 1.36 | -0.456 | -0.496 | 0.0193 |
| C1R (complement C1r) | 0.214 | 1.9 | 0.0122 | 0.456 | -0.114 |
| EPO (erythropoietin) | 0.425 | 1.18 | 0.622 | 0.216 | 0.456 |
| DYNC2H1 (dynein cytoplasmic 2 heavy chain 1) | 0.648 | 1.39 | 0.515 | 0.764 | 0.581 |
| CLEC4E (C-type lectin domain family 4 member E) | -0.155 | 2.31 | 0.143 | -0.324 | -0.268 |
| MOAP1 (modulator of apoptosis 1) | -0.297 | 2.65 | -0.189 | -0.285 | -0.285 |
| MOAP1 (modulator of apoptosis 1) | 0.2 | 2.7 | 0.335 | 0.201 | -0.351 |
| BCL2L2 (BCL2 like 2) | -0.313 | 2.22 | -0.443 | -0.347 | -0.063 |
| GRAMD1C (GRAM domain containing 1C) | -0.246 | 2.65 | -0.21 | -0.311 | -0.17 |
| POMT2 (protein O-mannosyltransferase 2) | 0.0686 | 3.44 | 0.013 | 0.0874 | 0.0437 |

Quoted from above (5 entries):
| Target gene | mean correlation with KSR1 profile | mean distance from KSR1 profile | KSR1 correlation, replicate 1 | KSR1 correlation, replicate 2 | KSR1 correlation, replicate 3 |
| --- | --- | --- | --- | --- | --- |
| SMG1 | 0.161 | 1.67 | 0.225 | 0.24 | 0.00113 |
| ZNF510 (zinc finger protein 510) | -0.191 | 2.36 | 0.000333 | -0.269 | -0.172 |
| TCTN1 (tectonic family member 1) | 0.688 | 1.24 | 0.718 | 0.564 | 0.612 |
| POLA1 (DNA polymerase alpha 1, catalytic subunit) | -0.454 | 2.28 | -0.423 | -0.16 | -0.932 |
| INCENP (inner centromere protein) | 0.0566 | 2.97 | 0.105 | 0.016 | -0.108 |
